PubChem BioAssay AID504774, Drosophila RNAi Screening Center | 2011

Purpose: 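Knock-downs that shift viability of MMS-exposed cells relative to untreated ones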 (primary screen)
Cells: Drosophila Kc167 cells
Knock-down reagent: long dsRNA against Drosophila genes, about 0.25 µg dsRNA per well
Duration: about 6 days: 3 days knock-down, then 3 days with or without MMS
Challenge: methyl methanesulphonate 0.004% (w/v) for 3 days after knock-down
Detection: 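ATP-dependent luminescence as a measure of live cells in MMS-exposed wells, quantile normalised within each plate, with replicate values also given as a mean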
Direction: mean viability with MMS and viability with MMS: higher = more surviving cells after MMS
The screen tested about 23,000 reagents; this is an unselected part of those with a known target gene and a result. 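Values are quantile-normalised luminescence on an arbitrary scale; higher means more cells surviving MMS.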 The numbers tell different reagents against one gene apart. Names joined by + are all predicted targets of the reagent. Not all columns of the deposit are shown.

| predicted target | reagent no. | mean viability with MMS | viability with MMS, replicate 1 |
| --- | --- | --- | --- |
| Or45a (Odorant receptor 45a) | 1 | 3.57e6 | 4.00e6 |
| aurB (aurora B) | 1 | 3.31e6 | 3.70e6 |
| aurB (aurora B) | 2 | 3.27e6 | 3.78e6 |
| Dhpr (Dihydropteridine reductase) | 1 | 3.35e6 | 3.72e6 |
| Pcyt2 (Phosphocholine cytidylyltransferase 2) | 1 | 3.63e6 | 4.05e6 |
| Arp10 (Actin-related protein 10) | 1 | 3.46e6 | 3.85e6 |
| CG10140 | 1 | 3.56e6 | 3.97e6 |
| ppan (peter pan) | 1 | 3.49e6 | 3.96e6 |
| CG14949 | 1 | 3.72e6 | 4.16e6 |
| eIF3e (eukaryotic translation initiation factor 3 subunit e) | 1 | 3.02e6 | 3.60e6 |
| CG15153 | 1 | 3.40e6 | 3.86e6 |
| Dis3l2 (Dis3 like 3'-5' exoribonuclease 2) | 1 | 3.50e6 | 4.01e6 |
| Als2 (Amyotrophic lateral sclerosis 2) | 1 | 3.53e6 | 3.99e6 |
| CG5021 | 1 | 3.47e6 | 3.92e6 |
| Rbpn-5 (Rabaptin-5) | 1 | 3.64e6 | 4.28e6 |
| sll (slalom) | 1 | 3.58e6 | 4.03e6 |
| Egm (Enigma) | 1 | 3.73e6 | 4.22e6 |
| Egm (Enigma) | 2 | 3.25e6 | 3.75e6 |
| Dlic (Dynein light intermediate chain) | 1 | 3.45e6 | 3.67e6 |
| fd19B (forkhead domain 19B) | 1 | 3.59e6 | 4.06e6 |
| Cep164 (centrosomal protein 164) | 1 | 3.65e6 | 4.16e6 |
| CG31675 | 1 | 3.63e6 | 4.14e6 |
| CG12420 | 1 | 3.67e6 | 4.15e6 |
| sac (sterile affecting ciliogenesis) | 1 | 3.58e6 | 4.03e6 |
| Sgs5 (Salivary gland secretion 5) | 1 | 3.48e6 | 3.97e6 |
| CG8209 | 1 | 3.49e6 | 3.93e6 |
| slx1 (nuclease slx1) | 1 | 3.48e6 | 3.95e6 |
| bchs (blue cheese) | 1 | 3.45e6 | 3.96e6 |
| CG42340 | 1 | 3.66e6 | 4.13e6 |
| CG42340 | 2 | 3.62e6 | 4.03e6 |
| CG42340 | 3 | 3.65e6 | 4.14e6 |
| CG42340 | 4 | 3.76e6 | 4.19e6 |
| ng2 (new glue 2) | 1 | 3.53e6 | 3.99e6 |
| CG1090 | 1 | 3.58e6 | 4.04e6 |
| CG1090 | 2 | 3.81e6 | 4.29e6 |
| CG15332 | 1 | 3.69e6 | 4.27e6 |
| PK2-R1 (Pyrokinin 2 receptor 1) | 1 | 3.61e6 | 4.26e6 |
| CG32320 | 1 | 3.75e6 | 4.27e6 |
| CG15185 | 1 | 3.58e6 | 4.06e6 |
| Octalpha2R (alpha2-adrenergic-like octopamine receptor) | 1 | 3.39e6 | 3.92e6 |
| Octalpha2R (alpha2-adrenergic-like octopamine receptor) | 2 | 3.52e6 | 4.12e6 |
| esg (escargot) | 1 | 3.58e6 | 4.05e6 |
| alpha-Est8 (alpha-Esterase-8) | 1 | 3.57e6 | 4.03e6 |
| wun (wunen) | 1 | 3.65e6 | 4.20e6 |
| CG15916 | 1 | 3.52e6 | 4.02e6 |
| CG11164 | 1 | 3.40e6 | 3.82e6 |
| slbo (slow border cells) | 1 | 3.76e6 | 3.99e6 |
| CG11779 | 1 | 3.40e6 | 3.89e6 |
| CG32986 | 1 | 3.60e6 | 3.93e6 |
| JYalpha (retired record) + JYalpha | 1 | 3.52e6 | 3.97e6 |
| Rgk3 (Rad, Gem/Kir family member 3) | 1 | 3.61e6 | 3.91e6 |
| Rgk3 (Rad, Gem/Kir family member 3) | 2 | 3.67e6 | 4.07e6 |
| Rgk3 (Rad, Gem/Kir family member 3) | 3 | 3.52e6 | 3.99e6 |
| Rgk3 (Rad, Gem/Kir family member 3) | 4 | 3.66e6 | 4.16e6 |
| CG30060 | 1 | 3.58e6 | 3.97e6 |
| CG14632 (retired record) | 1 | 3.64e6 | 4.24e6 |
| CG10222 | 1 | 3.49e6 | 3.94e6 |
| Cyp28a5 (Cytochrome P450 28a5) | 1 | 3.62e6 | 4.24e6 |
| Cp19 (Chorion protein 19) | 1 | 3.48e6 | 3.97e6 |
| unpg (unplugged) | 1 | 3.63e6 | 4.11e6 |
| CG32767 | 1 | 3.42e6 | 3.84e6 |
| St4 (Sulfotransferase 4) | 1 | 3.56e6 | 3.95e6 |
| Ir8a (Ionotropic receptor 8a) | 1 | 3.59e6 | 4.11e6 |
| Ir8a (Ionotropic receptor 8a) | 2 | 3.71e6 | 4.16e6 |
| Prosbeta5 (Proteasome beta5 subunit) | 1 | 3.15e6 | 3.69e6 |
| Mst84B (Male-specific transcript 84B) | 1 | 3.60e6 | 4.03e6 |
| CG33673 | 1 | 3.43e6 | 3.86e6 |
| VhaM9.7-d (Vacuolar H[+] ATPase M9.7 subunit d) | 1 | 3.54e6 | 4.03e6 |

Not a retest: 7 of the entries above.
| predicted target | reagent no. | mean viability with MMS | viability with MMS, replicate 1 |
| --- | --- | --- | --- |
| sll (slalom) | 1 | 3.58e6 | 4.03e6 |
| Egm (Enigma) | 1 | 3.73e6 | 4.22e6 |
| Egm (Enigma) | 2 | 3.25e6 | 3.75e6 |
| Dlic (Dynein light intermediate chain) | 1 | 3.45e6 | 3.67e6 |
| fd19B (forkhead domain 19B) | 1 | 3.59e6 | 4.06e6 |
| Cep164 (centrosomal protein 164) | 1 | 3.65e6 | 4.16e6 |
| CG31675 | 1 | 3.63e6 | 4.14e6 |
